From article PMC11750091 come the findings set out here.

The target of this experiment is T1, BD-PoFbx23 (CDS of fbx23 in pGBKT7) (Penicillium oxalicum) (UniProt S7ZS07).
T1 sequence: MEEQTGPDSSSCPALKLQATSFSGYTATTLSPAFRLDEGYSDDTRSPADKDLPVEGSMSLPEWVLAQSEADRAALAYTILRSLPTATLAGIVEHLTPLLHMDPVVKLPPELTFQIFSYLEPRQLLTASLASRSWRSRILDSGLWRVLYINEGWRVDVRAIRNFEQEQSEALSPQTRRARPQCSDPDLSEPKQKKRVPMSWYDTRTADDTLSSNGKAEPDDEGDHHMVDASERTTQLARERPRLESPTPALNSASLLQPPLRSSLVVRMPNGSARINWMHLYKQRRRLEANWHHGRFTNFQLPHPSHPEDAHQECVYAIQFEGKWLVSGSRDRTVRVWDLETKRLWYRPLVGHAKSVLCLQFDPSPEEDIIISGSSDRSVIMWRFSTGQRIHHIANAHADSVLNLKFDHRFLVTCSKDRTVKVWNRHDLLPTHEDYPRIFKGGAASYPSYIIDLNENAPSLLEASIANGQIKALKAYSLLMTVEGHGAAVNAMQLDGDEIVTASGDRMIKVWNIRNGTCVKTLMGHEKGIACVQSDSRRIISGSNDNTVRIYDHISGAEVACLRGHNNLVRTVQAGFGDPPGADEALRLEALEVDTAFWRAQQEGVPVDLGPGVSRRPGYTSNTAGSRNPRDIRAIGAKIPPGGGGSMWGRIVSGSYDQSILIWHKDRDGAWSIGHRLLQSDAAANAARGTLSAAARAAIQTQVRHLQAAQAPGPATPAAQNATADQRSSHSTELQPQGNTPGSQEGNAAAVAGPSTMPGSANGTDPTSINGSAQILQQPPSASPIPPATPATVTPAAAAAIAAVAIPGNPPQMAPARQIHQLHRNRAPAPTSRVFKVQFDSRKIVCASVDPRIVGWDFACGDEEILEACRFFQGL
Briefly: two-hybrid; Y2H Gold-BD-PoFbx23 mated with Y187-AD-PoAce1 fragments; growth on QDO (SD-Ade/-His/-Leu/-Trp) and QDO/X-alpha-gal/Aba.

No constants are given. Whether binding was seen depends on the method and setting. Some entries that bind do so weakly or less than the wild type. Tags and fused reporters may be left off the sequences shown.

B1: AD-PoAce1 (484-816 aa) (domain or fragment, UniProt S8AYJ0 484-815)
chain: GWKYNRQKSNSRARGSKSKRGTSLRAASHQDSPSTPDAMTPASGQTDFNTPSLGPTPSPCEPSLIYSDGSSFINFADPPAPVPGNGYSAFYNASVVNQPEAAMSYQASPEGTAPSYQTPRTYQTSPDATMAHDFQFTAEDIANLGSLGSLEAQFAMGNPNELVSHLNMHQSIVASMSSVPSASSVPDLSGSVSASQGNSPCAPAASGGNLCDNIDWTRVEYSLQNNINDLHGGNDNGNDQAMMMSGLSPTAQGHLMLFSPDNGLAAANIGASFPYGGQDMQQNLQDFSGQELQDFTLFETPMPTYPAANLTDPAFNWVGGPWPGMDKAIAFD
Consider B1, for which the binding result was “binds”.

B2: AD-PoAce1 (1-396 aa) (domain or fragment, UniProt S8AYJ0 1-396)
chain: MASTQFESTRVHPRRRPVVNTSSNLAKTDEEPTASKLQLKKGETFNAPTSPPSAESDPVMNIRSLPHRSPTSLDALAASEESMSSIFERLNLDENSEGQGASTDNQSAGASTLNSAADKDEHNPFPSVKKVSTQQEDHDHDSDSGLGSSVSDCDSMSEISEQDNHDASVEQDSTITSPIAASQGTNPRHQLPLSACKQIERYLLVPLLKEPKLEDFHPLVRSVPTRIANKQIVCLRDLEKILLWLAPKFSKSRSSYLSFCEYTIQCLHTSVSHLNAKDQRLPADRPYTNGYFLDLVTQVRRYAAMVQASKAEALQSNKDKPSVPPASLQGGLSVNGCAAELVIMTDGQVISLATGKPFEGAVSIKRAHETVDEVTDEGVVRSMARRKKNAPPMDIN
For B2, the binding result is listed as “binds”.
